A short description of this assay: qHTS Assay for Modulators of Lamin A Splicing. The settings on record: HeLa LMNA splicing GFP/RFP minigene ratio, 48 h. In short, it runs like this: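 Read-out is the ratio of GFP to DsRed2 object intensity, acquired by 488 nm laser-scanning cytometry on HeLa lamin A-EGFP minigene reporter cells. Compound incubation 48 hrs at 37 °C in Opti-MEM with 2% FBS; DMSO 0.5% final.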

[1] abbreviates: measured here: GFP splicing reporter channel.
Setting [2] is: measured here: RFP viability control channel.

The structures appear in SMILES notation. “And” between values parts separate entries of the source, which are not always exact repeats. Identical values can stand only once. The list shows a part of the results. Further columns of the screen follow, without active or inactive calls. Most of these compounds were active or inconclusive in the main read-out, so they are no random draw. Words in brackets tell the shape of the fitted curve; partial curves, single points and poor fits give uncertain potencies.

Take `c1cc(CNC2C3CC4CC(C3)CC2C4)ccn1` (stereo unspecified): under setting [1], the AC50 was 6.31 µM [falling, single point]. Regarding `CC(=O)N1CCN(S(=O)(=O)c2cccc(C(=O)Nc3nc4c(s3)CCCC4)c2)CC1`, the AC50 under setting [2] is 15.8 µM [rising, single point]. Same read-out and setting: the value for `CCN(CC)S(=O)(=O)c1ccc2c(c1)nc(CCC(=O)Nc1cccc(C(F)(F)F)c1)n2CC` was 0.00355 µM [falling, full curve, poor fit].

Turning to `Cc1cccc(NC(=O)c2cc(-c3ccc(C)s3)nc3ccccc23)n1`, the AC50 is 10 µM [rising, partial curve, poor fit] under setting [1] and 15.8 µM [rising, partial curve] under setting [2]. Regarding `Cc1cc(C)nc(-n2nc(C)cc2NC(=O)c2ccc(F)cc2F)n1`, the AC50 under setting [2] is 7.08 µM [rising, partial curve]. For `O=C(/C=C/c1ccc(OCCCF)cc1)NCc1ccc(Cl)c(Cl)c1`, the AC50 is, setting by setting: under setting [1], 35.5 µM [falling, single point]; under setting [2], 22.4 µM [falling, single point].

As for `CC(=O)Nc1ccc(S(=O)(=O)Oc2ccc(C(=S)N3CCC(O)CC3)cc2)cc1`, the AC50 was 3.16 µM [rising, full curve, poor fit] under setting [1] and 11.2 µM [rising, partial curve] under setting [2]. Turning to `COc1ccc(O)c(CN2CCN(CCc3ccccc3)C(CCO)C2)c1` (stereo unspecified), the AC50 under setting [2] was 0.0316 µM [falling, full curve, poor fit].

Consider `O=C(NCc1ccco1)c1cc(NS(=O)(=O)c2cccc([N+](=O)[O-])c2)ccc1O`, for which the AC50 under setting [2] is 7.08 µM [rising, full curve, poor fit]. Same read-out and setting: the figure for `CCOC(=O)c1cnn(-c2nc(SC)nc3sc4c(c23)CCCC4)c1N` is 35.5 µM [rising, single point]. In the case of `CCN(CC)CC#CCC(OC)(c1ccccc1)c1ccccc1`, the AC50 was 25.1 µM [falling, single point] under setting [1] and 0.01 µM [falling, full curve, poor fit] under setting [2]. In the case of `Nc1nc(N)c2nc(-c3ccccc3)c(N)nc2n1`, the AC50 was 14.1 µM [falling, single point] and 1.26 µM [falling, single point] under setting [1]; 14.1 µM [falling, single point] and 3.55 µM [rising, partial curve, poor fit] and 44.7 nM [rising, full curve] under setting [2]. Take `N=C(N)SCc1nc2ccccc2c(=O)n1-c1ccccc1Cl`: the AC50 by setting is: under setting [1], 14.1 µM [falling, single point]; under setting [2], 14.1 µM [falling, partial curve, poor fit]. Regarding `O=C(COc1ccccc1)NC(=S)Nc1ccc2c(c1)Cc1ccccc1-2`, the AC50 was 0.126 µM [rising, full curve, poor fit] under setting [1] and 0.112 µM [rising, full curve, poor fit] under setting [2]. Turning to `Cc1[nH]n(-c2ncc(-c3ccccc3)s2)c(=O)c1C(c1ccc(Cl)cc1)C(C#N)C#N` (stereo unspecified), the AC50 under setting [2] was 10 µM [rising, partial curve, poor fit]. Same read-out and setting: the figure for `Cc1cc(=O)oc2cc(OCC(=O)N3c4ccccc4CC3C)ccc12` (stereo unspecified) is 11.2 µM [rising, partial curve]. The same measure, in the same setting: the figure for `C=CCNC(=O)c1onc(CCl)c1C(=O)OC` is 35.5 µM [rising, single point]; for `CCS(=O)(=O)N1CCC(c2nc(-c3ccc(C(F)(F)F)cc3)no2)CC1` it is 7.08 µM [rising, partial curve]; for `CN(C)N=Nc1ccc(S(N)(=O)=O)cc1` it is 0.02 µM [falling, full curve, poor fit].

Regarding `O=C(Nc1ccc2nc(SCc3ccccc3)sc2c1)c1ccccc1F`, the AC50 under setting [2] was 3.16 µM [rising, single point].

For the molecule `Cc1c(C=O)c2ccccn2c1C(=O)c1ccc(Cl)c([N+](=O)[O-])c1`, the AC50 under setting [2] is 35.5 µM [rising, single point].

As to `COc1cc(C(=O)Nc2ccc(S(=O)(=O)N(C)c3ccccc3)cc2)cc(OC)c1OC`, the AC50 is 15.8 µM [rising, partial curve] under setting [1] and 10 µM [rising, partial curve] under setting [2].

Regarding `COc1ccc(Cl)cc1NC(=O)Cn1nc(-c2ccc(C)cc2)n(C)c1=S`, the AC50 under setting [1] is 15.8 µM [rising, single point]. As for `Cc1onc(-c2c(F)cccc2Cl)c1C(=O)N1CCCc2ccccc21`, the AC50 under setting [2] is 12.6 µM [rising, single point]. As to `CCOc1ccc(C(=O)N/N=C/c2cccc3cccnc23)cc1`, the AC50 was 20 µM [falling, single point] under setting [1] and 31.6 µM [falling, single point] under setting [2]. Take `COc1cccc(O)c1O`: the AC50 was 7.94 µM [falling, partial curve] under setting [1] and 3.16 µM [falling, partial curve] under setting [2].

Turning to `Nc1nc(NCCCN2CCOCC2)nc(NCc2ccccc2)c1[N+](=O)[O-]`, the AC50 under setting [2] was 20 µM [falling, partial curve, poor fit]. For the molecule `COc1ccccc1CNc1nc(-c2ccc(N(C)C)cc2)nc2ccccc12`, the AC50 is 25.1 µM [falling, single point] under setting [1] and 35.5 µM [falling, single point] under setting [2].

For `Cn1c(=O)cc(OCC(=O)NCCCN2CCN(c3cccc(Cl)c3)CC2)c2ccccc21`, the AC50 under setting [2] is 14.1 µM [rising, single point].

In the case of `N#Cc1cccc(-c2cn(S(=O)(=O)c3ccc(Cl)cc3)nc2N)c1`, under setting [2], the AC50 was 12.6 µM [rising, partial curve].

With `CCC(=O)Nc1c(C)n[nH]c1C`, the AC50 under setting [2] was 25.1 µM [falling, partial curve, poor fit].

For the molecule `O=CCCCC=O`, the AC50 by setting is: under setting [1], 1 µM [falling, single point]; under setting [2], 0.00562 µM [rising, full curve, poor fit]. With `CCN(CC)C(=O)CSc1nnc(-c2cc3ccccc3cc2O)n1CC`, the AC50 runs as follows: under setting [1], 0.316 µM [falling, full curve, poor fit]; under setting [2], 0.447 µM [falling, partial curve, poor fit]. Take `O=C(NC(=S)NNC(=O)c1ccccc1O)c1ccco1`: under setting [2], the AC50 is 15.8 µM [rising, partial curve].

Turning to `Cc1cccc(C)c1NC(=O)CSc1nc(C)c(CC(=O)c2ccc(Br)cc2)c(C)c1C#N`, the AC50 was 1.58 µM [falling, partial curve] under setting [1] and 1.41 µM [falling, full curve] under setting [2]. Regarding `CC12CCC(c3nnc(SCc4ccc(Cl)cc4)nc31)C2(C)C` (stereo unspecified), the AC50 under setting [1] is 35.5 µM [rising, single point] and the AC50 under setting [2] was 35.5 µM [rising, single point].

For `Cc1cc(NC(=O)CSc2ncn[nH]2)no1`, under setting [2], the half-maximal activity concentration (AC50) is 0.158 µM [falling, full curve, poor fit]. As to `CCN1C(=O)/C(=C/c2ccc(C)s2)SC1=Nc1ccc(OC)cc1`, the AC50 under setting [1] is 12.6 µM [falling, single point]. `CC(=O)Nc1cccc(Oc2ncnc3scc(-c4ccc(C)cc4)c23)c1`: the AC50 under setting [2] is 10 µM [rising, partial curve, poor fit]. On to `CSC1=NCCN1C(=O)c1ccc(C)cc1`, for which the AC50 under setting [1] is 11.2 µM [rising, partial curve]. As to `Cc1ccccc1N/C(SCc1ccc(Cl)cc1)=C(/C#N)C(=O)NCc1ccco1`, the AC50 reads like this: under setting [1], 17.8 µM [rising, partial curve, poor fit]; under setting [2], 20 µM [rising, single point]. As to `COc1cc(CO)ccc1OCc1nnnn1-c1ccc(C)cc1`, under setting [1], the AC50 was 1 µM [rising, full curve, poor fit]. As to `Cc1cc(C)n(CC(O)CN2c3ccccc3Sc3ccccc32)n1` (stereo unspecified), the concentration at half-maximal activity (AC50) under setting [1] was 11.2 µM [rising, partial curve, poor fit]. Same read-out and setting: the figure for `Cc1cccc(Nc2nc(N)c(C#N)c(CC#N)c2C#N)c1` is 0.891 µM [rising, partial curve].

Take `CC(=O)c1ccc(OCC(O)CN(C)Cc2cccs2)cc1` (stereo unspecified): the AC50 reads like this: under setting [1], 11.2 µM [rising, partial curve, poor fit]; under setting [2], 11.2 µM [rising, partial curve, poor fit].

As to `COc1ccc(CC(=O)NCc2nc3cccnc3n2Cc2ccc(C)cc2)cc1`, under setting [2], the AC50 is 35.5 µM [falling, single point]. As for `O=C(Nc1ccc2c(c1)nc1n2CCCCC1)c1cc(S(=O)(=O)N2CCOCC2)ccc1Cl`, the AC50 was 3.55 µM [rising, single point] under setting [1] and 7.08 µM [rising, full curve] under setting [2]. In the case of `COC(=O)c1ccc(NC(=O)C(=O)NCCc2sc(-c3cccc(F)c3)nc2C)cc1`, the AC50 reads like this: under setting [1], 12.6 µM [falling, partial curve, poor fit]; under setting [2], 22.4 µM [falling, single point]. Regarding `Brc1cc(/C=N/n2cnnc2)oc1Br`, the AC50 is 1.78 µM [rising, partial curve, poor fit] under setting [1] and 2.82 µM [rising, partial curve, poor fit] under setting [2].

As for `CCOC(=O)c1ccc(NC(=O)CCc2nc(-c3ccccc3Cl)no2)cc1`, the concentration at half-maximal activity (AC50) under setting [2] is 10 µM [rising, single point]. As for `CC(=O)c1ccc(NC(=O)C2CCCN(S(=O)(=O)c3ccc4c(c3)CCCN4C(C)=O)C2)cc1` (stereo unspecified), under setting [1], the concentration at half-maximal activity (AC50) was 0.02 µM [falling, full curve, poor fit]. As for `Cc1nn2cc(-c3cccc(Cl)c3)cnc2c1Br`, the AC50 is 0.00355 µM [falling, full curve, poor fit] under setting [1] and 2.24 µM [falling, partial curve, poor fit] under setting [2]. For the molecule `CC(NC(c1ccccc1)c1ccccc1)C(=O)N1CCCc2ccccc21` (stereo unspecified), the AC50 is, setting by setting: under setting [1], 1.58 µM [rising, full curve, poor fit]; under setting [2], 14.1 µM [rising, partial curve].

In the case of `CCCCn1c(=O)c(C(=O)OCC)c(O)c2ccccc21`, under setting [2], the AC50 is 0.00355 µM [falling, full curve, poor fit].

(Values after PubChem BioAssay AID1487 (National Center for Advancing Translational Sciences (NCATS), 2009).)
